Results deposited as PubChem BioAssay AID1259254 (NCATS, 2017).

Screen: 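Genome-wide screen for genes that prevent DNA re-replication in cancer cells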 (primary screen)
Cell system: human HCT116 colorectal cancer cells
Knock-down reagent: single siRNA against human genes
Timing: 3 days
Measurement: 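Imaged Hoechst DNA stain sorts each cell into a cycle phase by DNA amount; per plate, G2 fraction set to 0% for non-targeting and 100% for GMNN siRNA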
Direction: G2 robust z-score and G2 cells, % of GMNN control: higher = more G2 cells, more excess DNA replication; raw share of cells in G2: higher = larger share of cells with G2 DNA content
Active means: 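An siRNA counts as active if its G2 robust z-score lies at least 5 MADs above the screen median; here such calls match roughly 38% of GMNN control or more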
The deposit covers about 59,000 reagents; below is a part drawn at random. About 1,550 of them (2.6%) count as active. 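G2 share is only a proxy for re-replication; each gene was hit by three separate siRNAs, and active genes were retested.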 Raw values are not corrected between plates. A number with no mark means an inactive call. The numbers tell different reagents against one gene apart. Not stated in the record: the amount of reagent.

gene symbol | siRNA no. | G2 robust z-score | G2 cells, % of GMNN control | raw share of cells in G2 (%)
SNRPD2P1 (small nuclear ribonucleoprotein D2 pseudogene 1) | 1 | 0.261 | 4.81 | 6.02
SNRPD2P1 (small nuclear ribonucleoprotein D2 pseudogene 1) | 2 | 4.86 | 37.2 | 14.4
SNRPD2P1 (small nuclear ribonucleoprotein D2 pseudogene 1) | 3 | -0.932 | -3.59 | 0.77
RFX7 (regulatory factor X7) | 1 | 0.2 | 4.37 | 4.34
RFX7 (regulatory factor X7) | 2 | 1.15 | 11 | 10.9
RFX7 (regulatory factor X7) | 3 | -0.547 | -0.881 | 3.36
SPACDR (sperm acrosome developmental regulator) | 1 | 7.99 (active) | 59.2 | 29.3
SPACDR (sperm acrosome developmental regulator) | 2 | -0.536 | -0.807 | 3.52
SPACDR (sperm acrosome developmental regulator) | 3 | 0.713 | 7.99 | 6.69
PRNT (prion locus lncRNA, testis expressed) | 1 | 0.253 | 4.74 | 4.72
PRNT (prion locus lncRNA, testis expressed) | 2 | 3.8 | 29.7 | 13.8
PRNT (prion locus lncRNA, testis expressed) | 3 | 0.859 | 9.01 | 5.7
MARCKSL1 (MARCKS like 1) | 1 | 3.15 | 25.1 | 15.5
MARCKSL1 (MARCKS like 1) | 2 | 6.22 (active) | 46.7 | 25.6
MARCKSL1 (MARCKS like 1) | 3 | 3.84 | 30 | 10.6
CEP152 (centrosomal protein 152) | 1 | 0.913 | 9.39 | 6.69
CEP152 (centrosomal protein 152) | 2 | 0.137 | 3.93 | 6.53
CEP152 (centrosomal protein 152) | 3 | -0.174 | 1.74 | 4.86
CWC22 (CWC22 spliceosome associated protein) | 1 | 1.48 | 13.4 | 9.62
CWC22 (CWC22 spliceosome associated protein) | 2 | -0.453 | -0.219 | 4.36
CWC22 (CWC22 spliceosome associated protein) | 3 | -0.75 | -2.31 | 2.3
MBOAT2 (membrane bound glycerophospholipid O-acyltransferase 2) | 1 | 0.302 | 5.09 | 8.03
MBOAT2 (membrane bound glycerophospholipid O-acyltransferase 2) | 2 | -0.77 | -2.45 | 3.91
MBOAT2 (membrane bound glycerophospholipid O-acyltransferase 2) | 3 | 1.12 | 10.8 | 8.58
PLA2G4F (phospholipase A2 group IVF) | 1 | 0.119 | 3.81 | 6.09
PLA2G4F (phospholipase A2 group IVF) | 2 | 0.031 | 3.19 | 7.48
PLA2G4F (phospholipase A2 group IVF) | 3 | -0.721 | -2.1 | 3.82
CRYBA4 (crystallin beta A4) | 1 | -0.297 | 0.878 | 5.71
CRYBA4 (crystallin beta A4) | 2 | -0.7 | -1.96 | 3.37
CRYBA4 (crystallin beta A4) | 3 | -0.464 | -0.294 | 3.41
DCUN1D1 (defective in cullin neddylation 1 domain containing 1) | 1 | 0.619 | 7.32 | 6.22
DCUN1D1 (defective in cullin neddylation 1 domain containing 1) | 2 | -0.535 | -0.794 | 3.94
DCUN1D1 (defective in cullin neddylation 1 domain containing 1) | 3 | -0.166 | 1.8 | 3.79
OC90 (otoconin 90) | 1 | -0.366 | 0.396 | 6.07
OC90 (otoconin 90) | 2 | -0.657 | -1.66 | 4.31
OC90 (otoconin 90) | 3 | -0.361 | 0.424 | 4.44
ABCA1 (ATP binding cassette subfamily A member 1) | 1 | -0.0263 | 2.78 | 5.03
ABCA1 (ATP binding cassette subfamily A member 1) | 2 | 1.1 | 10.7 | 8.37
ABCA1 (ATP binding cassette subfamily A member 1) | 3 | 2.19 | 18.4 | 11.6
CLSTN1 (calsyntenin 1) | 1 | 0.942 | 9.59 | 10.2
CLSTN1 (calsyntenin 1) | 2 | 0.0203 | 3.11 | 5.2
CLSTN1 (calsyntenin 1) | 3 | -0.227 | 1.37 | 4.33
PPP4R3A (protein phosphatase 4 regulatory subunit 3A) | 1 | -1.46 | -7.28 | 1.73
PPP4R3A (protein phosphatase 4 regulatory subunit 3A) | 2 | 1.33 | 12.3 | 9.24
PPP4R3A (protein phosphatase 4 regulatory subunit 3A) | 3 | -0.257 | 1.16 | 3.51
INTS2 (integrator complex subunit 2) | 1 | 0.271 | 4.87 | 4.57
INTS2 (integrator complex subunit 2) | 2 | -1.26 | -5.88 | 2.03
INTS2 (integrator complex subunit 2) | 3 | 0.449 | 6.13 | 7.39
CES2 (carboxylesterase 2) | 1 | 0.953 | 9.67 | 8.17
CES2 (carboxylesterase 2) | 2 | 1.41 | 12.9 | 9.8
CES2 (carboxylesterase 2) | 3 | 1.18 | 11.3 | 9.66
SIX2 (SIX homeobox 2) | 1 | 5.58 (active) | 42.2 | 21.5
SIX2 (SIX homeobox 2) | 2 | 0.761 | 8.32 | 7.57
SIX2 (SIX homeobox 2) | 3 | -0.345 | 0.537 | 3.37
ONECUT1 (one cut homeobox 1) | 1 | -0.659 | -1.67 | 3.59
ONECUT1 (one cut homeobox 1) | 2 | 2.49 | 20.5 | 13.5
ONECUT1 (one cut homeobox 1) | 3 | -0.969 | -3.85 | 3.65
GHRHR (growth hormone releasing hormone receptor) | 1 | -1.59 | -8.23 | 2.9
GHRHR (growth hormone releasing hormone receptor) | 2 | -0.846 | -2.98 | 3.47
GHRHR (growth hormone releasing hormone receptor) | 3 | 1.39 | 12.8 | 7.19
NRTN (neurturin) | 1 | 1.52 | 13.7 | 8.3
NRTN (neurturin) | 2 | 2.73 | 22.2 | 14.4
NRTN (neurturin) | 3 | -0.0957 | 2.29 | 5.13
KLHL6 (kelch like family member 6) | 1 | -0.268 | 1.08 | 4.54
KLHL6 (kelch like family member 6) | 2 | -0.132 | 2.04 | 3.64
KLHL6 (kelch like family member 6) | 3 | 0.106 | 3.71 | 4.1
PTGFRN (prostaglandin F2 receptor inhibitor) | 1 | -0.851 | -3.02 | 3.69
PTGFRN (prostaglandin F2 receptor inhibitor) | 2 | 0.175 | 4.2 | 5.88
PTGFRN (prostaglandin F2 receptor inhibitor) | 3 | 2.46 | 20.3 | 10.7
